Test results reported in article PMC10393996.

Chains of the proteins cited; added tags and fusions are not shown.
UniProt P06401: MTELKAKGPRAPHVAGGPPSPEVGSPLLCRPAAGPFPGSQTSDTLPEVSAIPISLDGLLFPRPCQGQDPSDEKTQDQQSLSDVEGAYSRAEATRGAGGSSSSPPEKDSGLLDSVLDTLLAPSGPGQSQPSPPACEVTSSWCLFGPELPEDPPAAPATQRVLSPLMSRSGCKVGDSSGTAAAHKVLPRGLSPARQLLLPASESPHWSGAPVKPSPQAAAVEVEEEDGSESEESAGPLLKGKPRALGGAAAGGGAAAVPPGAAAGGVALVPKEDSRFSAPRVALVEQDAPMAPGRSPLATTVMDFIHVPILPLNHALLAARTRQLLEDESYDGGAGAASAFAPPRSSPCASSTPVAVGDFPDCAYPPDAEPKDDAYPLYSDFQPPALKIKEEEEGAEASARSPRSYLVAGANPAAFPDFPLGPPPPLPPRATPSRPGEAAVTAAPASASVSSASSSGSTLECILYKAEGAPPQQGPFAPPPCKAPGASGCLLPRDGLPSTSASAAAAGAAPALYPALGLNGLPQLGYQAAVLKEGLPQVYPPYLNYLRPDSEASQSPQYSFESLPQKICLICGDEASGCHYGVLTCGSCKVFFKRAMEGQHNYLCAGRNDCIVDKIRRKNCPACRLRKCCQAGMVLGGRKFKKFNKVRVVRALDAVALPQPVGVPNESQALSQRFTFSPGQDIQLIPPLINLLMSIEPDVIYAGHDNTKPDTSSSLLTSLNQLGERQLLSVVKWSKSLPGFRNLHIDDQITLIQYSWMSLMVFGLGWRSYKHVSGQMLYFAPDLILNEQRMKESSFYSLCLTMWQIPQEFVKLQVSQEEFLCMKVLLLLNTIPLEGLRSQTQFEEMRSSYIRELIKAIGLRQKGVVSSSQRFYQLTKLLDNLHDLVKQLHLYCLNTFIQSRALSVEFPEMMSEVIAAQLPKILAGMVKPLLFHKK
UniProt Q13263: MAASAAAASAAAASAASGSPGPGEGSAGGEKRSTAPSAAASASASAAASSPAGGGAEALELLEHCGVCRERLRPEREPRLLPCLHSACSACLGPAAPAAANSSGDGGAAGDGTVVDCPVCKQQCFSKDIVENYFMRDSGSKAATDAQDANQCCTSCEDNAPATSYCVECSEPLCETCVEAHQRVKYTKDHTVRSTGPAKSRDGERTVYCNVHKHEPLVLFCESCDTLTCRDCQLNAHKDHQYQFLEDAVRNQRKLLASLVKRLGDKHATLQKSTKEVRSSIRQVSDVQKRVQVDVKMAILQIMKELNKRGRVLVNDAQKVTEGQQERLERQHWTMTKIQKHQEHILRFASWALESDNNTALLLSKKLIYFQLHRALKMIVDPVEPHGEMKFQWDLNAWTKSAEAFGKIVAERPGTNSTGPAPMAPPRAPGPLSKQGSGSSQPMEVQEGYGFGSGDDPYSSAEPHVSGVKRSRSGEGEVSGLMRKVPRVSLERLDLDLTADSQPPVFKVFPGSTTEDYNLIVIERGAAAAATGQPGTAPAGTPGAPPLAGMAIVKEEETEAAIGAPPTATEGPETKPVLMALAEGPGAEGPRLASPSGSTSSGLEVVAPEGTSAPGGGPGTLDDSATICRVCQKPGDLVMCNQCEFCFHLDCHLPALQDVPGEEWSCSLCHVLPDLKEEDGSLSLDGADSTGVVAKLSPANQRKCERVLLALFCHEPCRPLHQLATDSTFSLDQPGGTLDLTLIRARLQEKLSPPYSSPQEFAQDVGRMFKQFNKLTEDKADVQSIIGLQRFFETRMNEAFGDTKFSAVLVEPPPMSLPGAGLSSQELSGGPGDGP

Molecular target: progesterone receptor (PR), endogenous in primary human endometrial stromal cells (human (endogenous in primary HESCs)) (UniProt P06401)
Assay: affinity purification with mass spectrometry; RIME: decidual primary HESCs (EPC three days, three donors mixed) fixed by 1% PFA for 8 min; chromatin immunoprecipitated with antibody against PR and protein G magnetic beads; IgG control; LC-MS/MS

For “TRIM28 (Tripartite motif containing 28), endogenous in primary human endometrial stromal cells (from UniProt Q13263 1-835)”, the binding was “binds”.

No constants are given. Whether binding was seen depends on the method and setting. In cells and extracts the contact can be indirect. These calls come from enrichment with a bait or labelling near it, and not all partners need be listed.
